{"source": "paper PMC3617406", "about": "(Molecular pharmaceutics, 2013)", "molecular_target": "T1, human ASBT (Homo sapiens, UniProt Q12908)", "T1 sequence (Q12908 1-348)": "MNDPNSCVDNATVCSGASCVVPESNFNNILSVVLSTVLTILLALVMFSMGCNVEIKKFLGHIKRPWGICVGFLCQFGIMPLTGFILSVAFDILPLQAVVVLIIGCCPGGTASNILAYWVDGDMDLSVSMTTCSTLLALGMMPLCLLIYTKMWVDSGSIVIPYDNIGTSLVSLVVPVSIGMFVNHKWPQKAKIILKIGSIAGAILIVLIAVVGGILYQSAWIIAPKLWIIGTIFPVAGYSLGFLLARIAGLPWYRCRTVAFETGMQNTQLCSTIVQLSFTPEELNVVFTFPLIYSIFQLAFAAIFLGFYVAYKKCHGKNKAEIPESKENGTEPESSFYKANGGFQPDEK", "assay_type": "cell-based", "conditions": "Ki values of Table 4 and 5"}
{"smiles": "COc1ccc(CC(C)NCC(O)c2ccc(O)c(NC=O)c2)cc1", "note": "(stereo not shown) [Formoterol]", "values": [{"measurement": "fold more potent ASBT inhibition than NTCP inhibition", "value": "≥ 10", "unit": "fold"}]}
